# Test results taken from US20210079400A1 (CZ BIOHUB SF, published 2021).
# Results are given in words; binding and its absence hold for the method and conditions named. In cells and extracts the contact can be indirect. Some results given as binding are weak or reduced against the parent protein; the word gives no strength.
# T1: BMPR2 (human, on breast cancer cells) (human, UniProt Q13873 27-1038)
# T1 construct: whole, on cells; The PDX cells are described as human breast tumor cells; also called BMP Receptor 2
# T1 sequence (looked up): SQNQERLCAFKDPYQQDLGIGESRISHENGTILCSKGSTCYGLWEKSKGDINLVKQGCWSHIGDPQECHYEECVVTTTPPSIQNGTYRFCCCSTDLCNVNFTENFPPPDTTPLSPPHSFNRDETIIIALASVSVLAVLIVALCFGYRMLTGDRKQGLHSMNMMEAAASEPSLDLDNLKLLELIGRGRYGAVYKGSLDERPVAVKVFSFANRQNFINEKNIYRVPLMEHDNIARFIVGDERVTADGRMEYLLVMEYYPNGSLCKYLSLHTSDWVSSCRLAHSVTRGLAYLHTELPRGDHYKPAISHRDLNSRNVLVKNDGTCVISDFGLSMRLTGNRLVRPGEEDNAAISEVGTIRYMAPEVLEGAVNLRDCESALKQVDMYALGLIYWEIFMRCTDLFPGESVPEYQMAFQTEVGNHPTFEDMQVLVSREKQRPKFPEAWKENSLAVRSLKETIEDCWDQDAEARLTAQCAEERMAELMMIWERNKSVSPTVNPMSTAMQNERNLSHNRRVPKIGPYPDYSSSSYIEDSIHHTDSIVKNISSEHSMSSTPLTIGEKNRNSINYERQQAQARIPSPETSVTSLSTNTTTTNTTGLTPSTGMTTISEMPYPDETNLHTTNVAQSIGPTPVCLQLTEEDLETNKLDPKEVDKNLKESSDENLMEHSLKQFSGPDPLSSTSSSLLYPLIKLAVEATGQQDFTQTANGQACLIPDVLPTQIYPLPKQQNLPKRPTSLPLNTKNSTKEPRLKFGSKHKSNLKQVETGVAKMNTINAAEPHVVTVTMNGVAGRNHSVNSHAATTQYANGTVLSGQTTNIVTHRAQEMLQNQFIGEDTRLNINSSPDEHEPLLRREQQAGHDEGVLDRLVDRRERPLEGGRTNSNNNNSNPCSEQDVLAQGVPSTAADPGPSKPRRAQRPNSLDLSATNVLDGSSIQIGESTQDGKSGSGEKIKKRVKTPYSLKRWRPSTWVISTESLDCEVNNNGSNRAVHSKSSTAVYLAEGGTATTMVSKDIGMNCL
# Target: T1, BMPR2 (human, on breast cancer cells)
# Assay: Proximity Ligation on sorted breast cancer PDX cells
# From the text: Next, we examined the interaction of LEFTY-BMPR2 and BMP7-BMPR2 in different subpopulations of breast cancer cells. Tumor cells were isolated from 3 established breast cancer PDXs using flow cytometry. These models were characterized to follow the cancer stem cell paradigm. The cells were sorted based on EpCAM and CD49f cell surface markers. Different protein-protein interactions were quantified by Proximity Ligation and the cells were also simultaneously stained for pSMAD2 or pSMAD5. As shown in FIGS. 14A-14D, in the tumorigenic population the LEFTY-BMPR2 interaction is predominant, whereas the BMP7-BMPR2 interaction is predominant in non-tumorigenic population.
binder,measurement,value
"LEFTY (human, endogenous in breast cancer cells) (ligand, UniProt O75610 77-366, looked up) RFSQSFREVAGRFLALEASTHLLVFGMEQRLPPNSELVQAVLRLFQEPVPKAALHRHGRLSPRSARARVTVEWLRVRDDGSNRTSLIDSRLVSVHESGWKAFDVTEAVNFWQQLSRPRQPLLLQVSVQREHLGPLASGAHKLVRFASQGAPAGLGEPQLELHTLDLGDYGAQGDCDPEAPMTEGTRCCRQEMYIDLQGMKWAENWVLEPPGFLAYECVGTCRQPPEALAFKWPFLGPRQCIASETDSLPMIVSIKEGGRTRPQVVSLPNMRVQKCSCASDGALVPRRLQP",binding,binds
